According to patent publication US5968771:
The exact form of at least one protein or probe is not confirmed.

Protein sequences, listed by entry. Tags and fused reporters are not part of them. Lines headed by an entry give the natural chain unless they say otherwise; changes in a name come on top.
UniProt Q78ZR5: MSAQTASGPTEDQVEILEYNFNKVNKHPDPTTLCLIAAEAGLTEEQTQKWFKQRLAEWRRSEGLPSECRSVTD

Key:
[1] = target: giig15b (Rattus norvegicus) (UniProt Q78ZR5); test: footprint; settings: DNase I protection of TCAATTAAAT; 5 ug protein, poly(dA-dC), 2% polyvinyl alcohol; purified recombinant protein; label: 32P
[2] = target: giig15b (Rattus norvegicus) (UniProt Q78ZR5); test: EMSA; settings: dose-dependent shift; 30 pg probe, 5 ug protein, room temperature 30 min; full probe flanks not stated in the assay text (SEQ 11 may be the probe); purified recombinant protein; label: 32P

Sequence	binding result [1]	binding result [2]
TCTAGCGCGGGGCGTGTGCAGGCACGGCTCAATTAAATTTTTGCACTCGTCCCGGCTCTTTCTAGC (double strand) [homeobox footprint target oligonucleotide]	binds	–
TCAATTAAAT (double strand) [homeobox consensus site probe]	–	binds
